Earlier results in US20210405025A1, “IDENTIFYING COMPOUNDS FOR TREATING CANCER AND USE THEREOF” (THE UAB RESEARCH FOUNDATION, priority 2018, published 2021).

Settings: read-out: In vivo cMax; plasma concentration achievable in vivo at the FDA-recommended dose and schedule; cited from earlier work

In the case of `CC(C)c1c(C(=O)Nc2ccccc2)c(-c2ccccc2)c(-c2ccc(F)cc2)n1CC[C@@H](O)C[C@@H](O)CC(=O)[O-].CC(C)c1c(C(=O)Nc2ccccc2)c(-c2ccccc2)c(-c2ccc(F)cc2)n1CC[C@@H](O)C[C@@H](O)CC(=O)[O-].[Ca+2]` [ATORVASTATIN CALCIUM], the Cmax is listed as 10 nM.
